{"source": "paper PMC2270906", "about": "“The CD81 Partner EWI-2wint Inhibits Hepatitis C Virus Entry” (PLoS ONE, 2008)", "binders": {"B1": {"name": "EWI-2 (endogenous) (protein, UniProt Q969P0 28-613)", "chain": "REVLVPEGPLYRVAGTAVSISCNVTGYEGPAQQNFEWFLYRPEAPDTALGIVSTKDTQFSYAVFKSRVVAGEVQVQRLQGDAVVLKIARLQAQDAGIYECHTPSTDTRYLGSYSGKVELRVLPDVLQVSAAPPGPRGRQAPTSPPRMTVHEGQELALGCLARTSTQKHTHLAVSFGRSVPEAPVGRSTLQEVVGIRSDLAVEAGAPYAERLAAGELRLGKEGTDRYRMVVGGAQAGDAGTYHCTAAEWIQDPDGSWAQIAEKRAVLAHVDVQTLSSQLAVTVGPGERRIGPGEPLELLCNVSGALPPAGRHAAYSVGWEMAPAGAPGPGRLVAQLDTEGVGSLGPGYEGRHIAMEKVASRTYRLRLEAARPGDAGTYRCLAKAYVRGSGTRLREAASARSRPLPVHVREEGVVLEAVAWLAGGTVYRGETASLLCNISVRGGPPGLRLAASWWVERPEDGELSSVPAQLVGGVGQDGVAELGVRPGGGPVSVELVGPRSHRLRLHSLGPEDEGVYHCAPSAWVQHADYSWYQAGSARSGPVTVYPYMHALDTLFVPLLVGTGVALVTGATVLGTITCCFMKRLRKR"}, "B2": {"name": "EWI-2wint with the C-terminal FLAG epitope, produced by furin cleavage of EWI-2FLAG^fur in Huh-7 cells (domain or fragment)", "chain": "QAPTSPPRMTVHEGQELALGCLARTSTQKHTHLAVSFGRSVPEAPVGRSTLQEVVGIRSDLAVEAGAPYAERLAAGELRLGKEGTDRYRMVVGGAQAGDAGTYHCTAAEWIQDPDGSWAQIAEKRAVLAHVDVQTLSSQLAVTVGPGERRIGPGEPLELLCNVSGALPPAGRHAAYSVGWEMAPAGAPGPGRLVAQLDTEGVGSLGPGYEGRHIAMEKVASRTYRLRLEAARPGDAGTYRCLAKAYVRGSGTRLREAASARSRPLPVHVREEGVVLEAVAWLAGGTVYRGETASLLCNISVRGGPPGLRLAASWWVERPEDGELSSVPAQLVGGVGQDGVAELGVRPGGGPVSVELVGPRSHRLRLHSLGPEDEGVYHCAPSAWVQHADYSWYQAGSARSGPVTVYPYMHALDTLFVPLLVGTGVALVTGATVLGTITCCFMKRLRKR"}, "B3": {"name": "EWI-F (endogenous) (protein, UniProt Q9P2B2 26-879)", "chain": "VPTATLVRVVGTELVIPCNVSDYDGPSEQNFDWSFSSLGSSFVELASTWEVGFPAQLYQERLQRGEILLRRTANDAVELHIKNVQPSDQGHYKCSTPSTDATVQGNYEDTVQVKVLADSLHVGPSARPPPSLSLREGEPFELRCTAASASPLHTHLALLWEVHRGPARRSVLALTHEGRFHPGLGYEQRYHSGDVRLDTVGSDAYRLSVSRALSADQGSYRCIVSEWIAEQGNWQEIQEKAVEVATVVIQPSVLRAAVPKNVSVAEGKELDLTCNITTDRADDVRPEVTWSFSRMPDSTLPGSRVLARLDRDSLVHSSPHVALSHVDARSYHLLVRDVSKENSGYYYCHVSLWAPGHNRSWHKVAEAVSSPAGVGVTWLEPDYQVYLNASKVPGFADDPTELACRVVDTKSGEANVRFTVSWYYRMNRRSDNVVTSELLAVMDGDWTLKYGERSKQRAQDGDFIFSKEHTDTFNFRIQRTTEEDRGNYYCVVSAWTKQRNNSWVKSKDVFSKPVNIFWALEDSVLVVKARQPKPFFAAGNTFEMTCKVSSKNIKSPRYSVLIMAEKPVGDLSSPNETKYIISLDQDSVVKLENWTDASRVDGVVLEKVQEDEFRYRMYQTQVSDAGLYRCMVTAWSPVRGSLWREAATSLSNPIEIDFQTSGPIFNASVHSDTPSVIRGDLIKLFCIITVEGAALDPDDMAFDVSWFAVHSFGLDKAPVLLSSLDRKGIVTTSRRDWKSDLSLERVSVLEFLLQVHGSEDQDFGNYYCSVTPWVKSPTGSWQKEAEIHSKPVFITVKMDVLNAFKYPLLIGVGLSTVIGLLSCLIGYCSSHWCCKKEVQETRRERRRLMSMEMD"}}, "note": "These are yes or no findings as the source states them, for the method shown. In cells and extracts the contact can be indirect. Some binding calls cover weakened binding; strength is not graded here."}
{"molecular_target": "T1, CD81 (endogenous, human cells) (human (endogenous in Daudi, Ramos, Molt-4, 293T, Huh-7 and other cells)) (UniProt P60033)", "T1 sequence": "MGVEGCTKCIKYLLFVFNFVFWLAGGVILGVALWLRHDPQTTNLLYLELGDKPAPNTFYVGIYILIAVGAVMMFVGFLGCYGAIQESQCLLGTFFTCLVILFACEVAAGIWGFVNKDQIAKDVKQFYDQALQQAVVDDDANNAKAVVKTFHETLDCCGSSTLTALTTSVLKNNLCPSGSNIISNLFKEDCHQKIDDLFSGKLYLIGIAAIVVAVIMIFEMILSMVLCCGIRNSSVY", "experiment": "co-IP; surface-biotinylated cells lysed in Bj/EDTA (1% Brij97, 2 mM EDTA), immunoprecipitation with mAbs on rabbit anti-mouse protein A beads 2 h at 4°C, blot with HRP-conjugated streptavidin"}
{"binder": "B1", "binding": "binds"}
{"binder": "B2", "binding": "binds"}
{"binder": "B3", "binding": "binds"}
